This is one part of the list.

The assay relates to T1, CTL2-GFP (C. trachomatis L2/434/Bu, GFP-expressing).
T1 construct: L2/434/Bu, GFP-expressing
Set-up: species or system HeLa; Intracellular C. trachomatis growth in HeLa cells, bulk GFP fluorescence relative to DMSO. The conditions noted are these: bulk GFP, single well; 28.5 h, 10 µM; inhibitor.
As for `Brc1ccc(OCc2ccccc2)c(CNCc2ccccn2)c1` [CBK268340C], the “% of control remaining” value is 61.7155%.

Take `Cc1nccn1CCC1CCN(C(=O)c2cn3ccccc3n2)CC1` [CBK281868]: the “% of control remaining” value was 133.108%.

Consider `CCc1cccc(NC(=O)c2cnc(-c3ccc(Cl)cc3)c(-c3ccc(OC)nc3)c2)n1` [CBK036671], for which the “% of control remaining” value came out at 138.57%.

Turning to `CCC1C(c2ccc(C)cc2)=CCC(C(=O)NCCCN(C)C)C1C` (centres unmarked) [CBK016514], the “% of control remaining” value turned out to be 27.683%.

On to `O=C(CSc1ccc2nnc(-c3ccccc3)n2n1)Nc1ccccc1` [CBK287513], for which the “% of control remaining” value turned out to be 164.064%.

Turning to `O=C(O)c1cccc(NS(=O)(=O)c2c(Cl)cc(C(F)(F)F)cc2Cl)c1` [CBK155721], the “% of control remaining” value was 113.37%.

With `CCc1nc(CCn2ccc3nc(OC)c(C#N)cc3c2=O)no1` [CBK307668], the “% of control remaining” value came to 116.774%.

As for `CC(/C=C/c1ccccc1)=N\NC(=O)C(C)Oc1ccc(Br)cc1` (centres unmarked) [CBK261212], the “% of control remaining” value stood at 100%.

With `O=S(=O)(O)c1cccc2cccc(I)c12` [CBK301197N], the “% of control remaining” value was found to be 172.252%.

On to `CN(C)CCCN1C(=O)C(O)=C(C(=O)c2ccc(F)cc2)C1c1cccnc1` (centres unmarked) [CBK264531], for which the “% of control remaining” value is given as 100%.

With `CCn1cncc1C(=O)N1CCCC1(C)C(=O)NC1CCCC1` (centres unmarked) [CBK281376], the “% of control remaining” value turned out to be 134.352%.

For `Cc1nc(-c2ccccc2)sc1C(=O)C1=C(O)C(=O)N(CCN(C)C)C1c1ccccc1` (centres unmarked) [CBK266415], the “% of control remaining” value is recorded as 196.668%.

Regarding `CCN(CC)C(=O)CN(CCc1ccc(OC)c(OC)c1)C(=O)NCc1ccc(Cl)cc1` [CBK158742], the “% of control remaining” value amounted to 93.4629%.

On to `O=C(CC1CCN(C(=O)Cc2ccccc2)CC1)NC1(c2ccccc2)CCCC1` [CBK285965], for which the “% of control remaining” value stood at 98.3308%.

For the molecule `CCn1c(SCC(=O)N2CCCC2)nc2cc(C)[nH]c2c1=O` [CBK288027], the “% of control remaining” value was 138.244%.

For `Cc1nn(CCC(=O)NC2CCOc3ccccc32)c(C)c1Cl` (centres unmarked) [CBK281684], the “% of control remaining” value worked out at 113.559%.

With `O=C(NCCc1cccs1)Nc1ccccc1OC(F)(F)F` [CBK044873], the “% of control remaining” value worked out at 112.195%.

Consider `O=C(OCCC1SC(NC2CC3C=CC2C3)=NC1=O)c1c(F)cccc1Cl` (centres unmarked) [CBK200061T], for which the “% of control remaining” value is on record as 144.161%.

On to `Nc1ncn(CC(O)CO)c2nc(N3CCOCC3)nc1-2` (centres unmarked) [CBK009231], for which the “% of control remaining” value is recorded as 106.911%.

As for `c1ccc2sc(CCSCCc3nc4ccccc4s3)nc2c1` [CBK261036], the “% of control remaining” value is listed as 100.938%.

Turning to `CC(=O)N1CCc2c([nH]c3ccccc23)C1CCN(C)Cc1ccc(F)cc1` (centres unmarked) [CBK066969], the “% of control remaining” value is 151.04%.

For the molecule `CNC(=O)CN1C(=O)CC2(C1=O)C(=O)N(CCOC)c1ccc(C)cc12` (centres unmarked) [CBK075401], the “% of control remaining” value came out at 119.502%.

`O=c1[nH]c2ncc(-c3cncc4ccccc34)nc2n1Cc1ccccc1` [CBK065113]: the “% of control remaining” value is given as 131.513%.

Turning to `C[C@]12CN(Cc3ccc(F)cc3)C[C@H]1NC(=O)c1ccccc1C2=O` [CBK284728], the “% of control remaining” value is 133.588%.

On to `O=C(Nc1ccc(Cl)cc1)N1CCN(CCCCc2ccc(F)cc2)CC1` [CBK017951C], for which the “% of control remaining” value was found to be 118.68%.

Consider `COC(=O)c1ccccc1NC(=O)CSc1nc(C)cc(C(F)(F)F)n1` [CBK268682], for which the “% of control remaining” value is reported as 148.771%.

For the molecule `CC1CCc2nc(NC(=O)CC3CCN(C(=O)Cc4ccccc4)CC3)sc2C1` (centres unmarked) [CBK286509], the “% of control remaining” value is 127.91%.

`COC(=O)c1csc2c1NC1(CCC1)[C@@H]1C[C@@H](O)[C@@H](O)[C@H]21` [CBK303255]: the “% of control remaining” value is listed as 81.5779%.

Turning to `Cc1ccc2ccccc2c1Cn1cc(-c2ccc([N+](=O)[O-])cc2)nc1SCC(=O)NC(C)(C)C` [CBK264493], the “% of control remaining” value is 88.4919%.

`CC(C)(C)SCCNc1nc(Cl)nc(N2CCSCC2)n1` [CBK018768]: the “% of control remaining” value came to 140.099%.

Take `Cc1nnnn1-c1cc(NC(=O)NCCc2ccnn2C)ccc1F` [CBK306428]: the “% of control remaining” value is 129.602%.

As for `COc1ccc(S(=O)(=O)NCCc2ccc(S(N)(=O)=O)cc2)cc1[N+](=O)[O-]` [CBK267598], the “% of control remaining” value came to 141.507%.

On to `COC(=O)c1ccsc1NS(=O)(=O)c1ccc(C)c([N+](=O)[O-])c1` [CBK039061], for which the “% of control remaining” value is on record as 135.087%.

For the molecule `Cc1nonc1NC(=O)Nc1ccncc1` [CBK260982], the “% of control remaining” value came out at 95.3408%.

With `CC1OC(n2ccc(=S)[nH]c2=O)C(O)C1O` (centres unmarked) [CBK012231], the “% of control remaining” value was 139.707%.

With `CC(NC(=O)c1ncoc1-c1ccc(F)cc1)c1ccccn1` (centres unmarked) [CBK283846], the “% of control remaining” value was 110.298%.

Turning to `CC(C)(C)C(=O)N1CCC(c2[nH]ncc2-c2ccncc2)CC1` [CBK284211], the “% of control remaining” value was 132.335%.

Regarding `c1ccc2c(-c3cn4ccnc4c(NC4CCOCC4)n3)cccc2c1` [CBK038047], the “% of control remaining” value came to 175.233%.

As to `NC(=O)c1cnn(-c2cc(Oc3ccccc3)ncn2)c1N` [CBK098664], the “% of control remaining” value is 96.633%.

For `Cc1ccc(-c2nn(-c3cc(N4CCN(CCO)CC4)ccc3[N+](=O)[O-])c(=O)c3ccccc23)cc1C` [CBK263713], the “% of control remaining” value came to 103.087%.

Consider `CC(c1ccccc1)n1c(S)nnc1-c1cc(C(C)(C)C)n[nH]1` (centres unmarked) [CBK268954], for which the “% of control remaining” value is 141.964%.

Consider `OC1(c2ccc(F)cc2)CCC2CN(CC3CC3)CC21` (centres unmarked) [CBK283105], for which the “% of control remaining” value was determined as 113.695%.

In the case of `Cc1ccc(F)c(OC2(C(=O)O)CCN(Cc3ncc[nH]3)CC2)c1` [CBK307062], the “% of control remaining” value is 97.5137%.

On to `Cc1ccc(C(=O)N2CCN(Cc3cc(=O)n4ccsc4n3)CC2)cn1` [CBK305700], for which the “% of control remaining” value stood at 115.942%.

Turning to `NC(=O)c1cccnc1N1CCNCC1` [CBK025310C], the “% of control remaining” value is listed as 120.816%.

Turning to `COC(=O)Nc1cc2sccc2nc1C(F)(F)F` [CBK019229], the “% of control remaining” value is 154.312%.

On to `CCOC(=O)c1cnc(SC)nc1NCCc1c[nH]c2cc(F)ccc12` [CBK092315], for which the “% of control remaining” value is 106.416%.

With `Cc1ccc(O)c(CN[C@@H]2CCC(=O)N[C@H]2c2cc(F)cc(F)c2)c1` [CBK283132], the “% of control remaining” value came to 131.597%.

As to `O=Cc1ccc(-c2nccnc2NS(=O)(=O)c2ccccc2)cc1` [CBK073845], the “% of control remaining” value was 136.399%.

Consider `CC(=O)c1cc2c(N)c(/C(N)=N/C#N)sc2nc1C` [CBK021202], for which the “% of control remaining” value was found to be 106.182%.

Source of the values: publication PMC12040169 (PLOS Biology, 2025).
